The source of these data is US20190345234A1 (CENTRE HOSPITALIER UNIVERSITAIRE VAUDOIS, published 2019).

No constants are given. Whether binding was seen depends on the method and setting.

Test [1] concerns the target 426c core, gp140 where the V loops were removed (HIV-1 clade C strain 426c). Description: ELISA.
The target in test [2] is 426c-NLGS, 426c gp140 where the N-linked glycosylation sites were removed (HIV-1 clade C strain 426c). In words: ELISA.

B1: IgG1 LN01 antibody (antibody, V domains shown)
VH: EVQLVESGPGLVQPWGTLSLTCRVSGDSVSNDNYYWAWIRQTPGRELQVIGTIYYSGTTYYNPSLRNRVTISLDKSVNVVSLRLGSVSAADTAQYYCVRMPSHGFWSTSFSYWYFDLWGRGHFVAVSW
VL: DIQMTQSPSSLSASVGDKVTITCRASQSVTKYLNWYQFKTGQAPRILIYGTYTLLSGVSPRFSGAGSGSLYTLTITNIQPEDFATYYCQQAHSTPWTFGQGTHVAAN
For the molecule B1, the binding result in test [1] and in test [2] was “no binding” each time.
